PubChem BioAssay AID1508588 – Peter MacCallum Cancer Centre | 2020
Test: 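Knock-downs boosting vemurafenib effects on melanoma cell growth or lactate release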 (primary screen). Cells: human WM266.4 melanoma cells (BRAF V600 mutant). Reagents: siRNA pool against human genes, 40 nM. Timing: 96 h from transfection to read-out. Treatment: vemurafenib 300 nM (about IC25), added 48 h after transfection, for 48 h; comparison arm got DMSO vehicle only. Read-out: 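Cell gain (DAPI nuclei at end minus before drug, mean of two replicates) and medium lactate by absorbance per cell, both as ratio to non-targeting siRNA, also grouped into fold-change classes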. Direction: cell gain with vemurafenib: higher = more cell gain than with non-targeting siRNA; lactate per cell with vemurafenib: higher = more lactate made per cell. Hit rule: 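a knock-down counts as enhancing when its fold-change classes with vehicle and with vemurafenib, taken together, show a stronger drug effect on cell gain or lactate per cell; exact class pairs not stated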. Calls: active = enhances vemurafenib effect; inactive = no enhancement seen.
The deposit covers about 18,000 reagents; this is a part drawn at random. 790 of them (4.4%) count as active. 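Calls rest on a combination of fold-change classes in drug and vehicle arms, not all shown here.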 A number with no mark means an inactive call. The numbers tell different reagents against one gene apart.

Target gene | reagent | cell gain with vemurafenib | lactate per cell with vemurafenib
SNX3 (GeneID 8724) | 1 | 0.78 | 0.67
GALNT9 (GeneID 50614) | 1 | 0.57 | 0.8
NECAP2 (GeneID 55707) | 1 | 0.27 | 0.88
GNPAT (GeneID 8443) | 1 | 0.98 | 0.66
ZSCAN9 (GeneID 7746) | 1 | 1 | 0.38
PHF12 (GeneID 57649) | 1 | 1.05 | 0.7
NSRP1 (GeneID 84081) | 1 | 0.12 (active) | 0.98
MGARP (GeneID 84709) | 1 | 1.16 | 0.66
ZNF257 (GeneID 113835) | 1 | 0.36 | 2.06
TKFC (GeneID 26007) | 1 | 0.72 | 1.14
WT1-AS (GeneID 51352) | 1 | 0.5 | 1.25
KRTAP8-1 (GeneID 337879) | 1 | 0.91 | 0.8
ALG13 (GeneID 79868) | 1 | 0.48 | 1.38
ALG13 (GeneID 79868) | 2 | 0.41 | 0.86
ZNF80 (GeneID 7634) | 1 | 0.65 | 0.62
SMN1 (GeneID 6606) | 1 | 0.68 | 0.92
STOML3 (GeneID 161003) | 1 | 0.73 | 1.15
PTPRO (GeneID 5800) | 1 | 0.94 | 0.93
ZFYVE26 (GeneID 23503) | 1 | 0.43 | 0.75
SFRP2 (GeneID 6423) | 1 | 0.27 | 0.28
FSCB (GeneID 84075) | 1 | 0.19 | 1.43
FBXO24 (GeneID 26261) | 1 | 0.4 | 0.94
TRAF1 (GeneID 7185) | 1 | 0.49 | 0.42
RPS6 (GeneID 6194) | 1 | -0.09 | 1.73
SMIM21 (GeneID 284274) | 1 | 0.7 | 1.17
BSND (GeneID 7809) | 1 | 0.5 | 0.88
HEATR6 (GeneID 63897) | 1 | 0.65 | 0.69
RAB5B (GeneID 5869) | 1 | 0.81 | 0.71
WBP11 (GeneID 51729) | 1 | 0.22 | 2
KRTAP4-1 (GeneID 85285) | 1 | 0.26 | 1.05
PIGB (GeneID 9488) | 1 | 0.68 | 0.56
ACTR3B (GeneID 57180) | 1 | 0.87 | 0.83
FAM47B (GeneID 170062) | 1 | 0.84 | 0.68
SS18 (GeneID 6760) | 1 | 0.73 (active) | 0.68
SERPINA12 (GeneID 145264) | 1 | 0.72 | 1
PPM1F (GeneID 9647) | 1 | 0.76 | 0.4
NLGN2 (GeneID 57555) | 1 | 0.92 | 0.6
TBC1D2B (GeneID 23102) | 1 | 0.89 | 0.7
BLOC1S2 (GeneID 282991) | 1 | 0.67 | 0.46
TRIM60 (GeneID 166655) | 1 | 1.12 | 0.66
OR13G1 (GeneID 441933) | 1 | -0.05 | 1.06
PTGDR2 (GeneID 11251) | 1 | 0.53 | 0.76
LYPLA1 (GeneID 10434) | 1 | 0.74 | 0.73
MAP3K13 (GeneID 9175) | 1 | 0.21 | 2.3
IKZF1 (GeneID 10320) | 1 | 0.79 | 1.02
RYBP (GeneID 23429) | 1 | 0.27 | 0.48
C1QTNF5 (GeneID 114902) | 1 | 0.64 | 1.6
GYPC (GeneID 2995) | 1 | 0.34 | 0.34
DYRK3 (GeneID 8444) | 1 | 0.56 | 0.86
TDRD12 (GeneID 91646) | 1 | 0.27 | 0.4
PCP2 (GeneID 126006) | 1 | 0.38 | 1.22
AWAT1 (GeneID 158833) | 1 | 0.59 | 1.25
RAB25 (GeneID 57111) | 1 | 0.68 | 0.9
ALKBH4 (GeneID 54784) | 1 | 0.65 | 1.8
KATNAL1 (GeneID 84056) | 1 | 0.43 | 0.52
RPS13 (GeneID 6207) | 1 | -0.13 | -0.32
SLC43A1 (GeneID 8501) | 1 | 1.23 | 0.28
CHST6 (GeneID 4166) | 1 | 0.57 | 1.79
RINT1 (GeneID 60561) | 1 | 0.34 | 1.54
MARCO (GeneID 8685) | 1 | 0.46 | 1.04
CHEK2 (GeneID 11200) | 1 | 0.81 | 0.68
DGKI (GeneID 9162) | 1 | 1.18 | 0.77
RPL29 (GeneID 6159) | 1 | 0 (active) | 0.12
TMSB4X (GeneID 7114) | 1 | 1.06 | 1.01
SLC46A3 (GeneID 283537) | 1 | 0.83 | 1.1
PSMD1 (GeneID 5707) | 1 | -0.03 | 1.83
MGAT4D (GeneID 152586) | 1 | 0.92 | 1.55
PRDM16 (GeneID 63976) | 1 | 0.65 | 1.02
COIL (GeneID 8161) | 1 | 1.11 | 0.84
KLF7 (GeneID 8609) | 1 | 0.33 | 1.39
DBNL (GeneID 28988) | 1 | 0.67 | 1.54
P2RX4 (GeneID 5025) | 1 | 0.67 | 0.57
KRT82 (GeneID 3888) | 1 | 1.03 | 0.42
HLA-DQA2 (GeneID 3118) | 1 | 0.4 | 0.9
IL1RAPL2 (GeneID 26280) | 1 | 0.91 | 0.74
PRPH (GeneID 5630) | 1 | 0.31 | 1.38
NOP14 (GeneID 8602) | 1 | 0.53 | 1.36
TMEM71 (GeneID 137835) | 1 | 0.42 | 1.08
CAMTA2 (GeneID 23125) | 1 | 0.39 | 1.05
ATL2 (GeneID 64225) | 1 | 1.11 | 0.65
STAU2 (GeneID 27067) | 1 | 0.71 | 0.86
MYO10 (GeneID 4651) | 1 | 0.64 | 1.07
MSTN (GeneID 2660) | 1 | 0.63 | 1.4
PHAF1 (GeneID 80262) | 1 | 0.73 | 0.43

7 entries from above in another layout.
CHEK2 (GeneID 11200) — cell gain with vemurafenib: 0.81; lactate per cell with vemurafenib: 0.68
DGKI (GeneID 9162) — cell gain with vemurafenib: 1.18; lactate per cell with vemurafenib: 0.77
RPL29 (GeneID 6159) — cell gain with vemurafenib: 0 (active); lactate per cell with vemurafenib: 0.12
TMSB4X (GeneID 7114) — cell gain with vemurafenib: 1.06; lactate per cell with vemurafenib: 1.01
SLC46A3 (GeneID 283537) — cell gain with vemurafenib: 0.83; lactate per cell with vemurafenib: 1.1
PSMD1 (GeneID 5707) — cell gain with vemurafenib: -0.03; lactate per cell with vemurafenib: 1.83
MGAT4D (GeneID 152586) — cell gain with vemurafenib: 0.92; lactate per cell with vemurafenib: 1.55
